Results reported in PMC5155689, “Pro-invasive Effect of Proto-oncogene PBF Is Modulated by an Interaction with Cortactin” (The Journal of Clinical Endocrinology and Metabolism, 2016).
Results are given in words; binding and its absence hold for the method and conditions named. In cells and extracts the contact can be indirect. A yes stands for co-enrichment or nearness to the bait. Other partners may have been found. Sequences can lack the tags named with a protein.

Protein sequences, listed by entry. Tags and fused reporters are not part of them.
UniProt Q14247: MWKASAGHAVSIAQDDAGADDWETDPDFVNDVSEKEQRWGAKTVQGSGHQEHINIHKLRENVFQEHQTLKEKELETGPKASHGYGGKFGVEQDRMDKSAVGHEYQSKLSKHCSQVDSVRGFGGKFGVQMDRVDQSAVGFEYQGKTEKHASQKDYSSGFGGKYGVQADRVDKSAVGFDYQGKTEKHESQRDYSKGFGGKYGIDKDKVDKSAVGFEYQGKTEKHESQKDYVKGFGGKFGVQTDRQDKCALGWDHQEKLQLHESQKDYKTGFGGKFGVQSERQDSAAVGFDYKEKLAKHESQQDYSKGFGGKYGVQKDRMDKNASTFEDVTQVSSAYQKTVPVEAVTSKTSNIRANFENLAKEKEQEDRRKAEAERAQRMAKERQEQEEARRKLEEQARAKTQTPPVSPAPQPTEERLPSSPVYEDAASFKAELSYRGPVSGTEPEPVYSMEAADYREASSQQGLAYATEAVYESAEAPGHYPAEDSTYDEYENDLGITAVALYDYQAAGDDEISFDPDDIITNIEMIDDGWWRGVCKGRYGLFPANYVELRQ

Target: T1, PTTG1-binding factor (PBF/PTTG1IP) with a hemagglutinin (HA) tag, wild type (UniProt P53801)
T1 sequence: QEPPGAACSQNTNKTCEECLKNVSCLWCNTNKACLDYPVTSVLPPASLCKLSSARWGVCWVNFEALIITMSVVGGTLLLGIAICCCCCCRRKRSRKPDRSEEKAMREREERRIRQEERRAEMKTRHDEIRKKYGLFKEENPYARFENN
Assay: affinity purification with mass spectrometry; PBF-interacting proteins isolated by co-immunoprecipitation with anti-mHA antibody from TPC-1 and K1 cells, SDS-PAGE, trypsin, HPLC and tandem mass spectrometry; n = 4 runs

endogenous cortactin (CTTN) (from UniProt Q14247 1-550)
binding: binds
